From publication PMC12221297
For at least one entry, the source does not settle the construct or the ends of the probe. For some assays here: Weaker means in comparison with the reference protein, sequence or condition of that experiment. At least one verdict was read from the data and is not stated in words by the source. For some assays here: Where cells or extracts were used, other partners may take part. For some assays here: Negatives hold for the conditions tested. For some assays here: Tags and fusion partners may be left off the protein sequences shown.

Chains of the proteins cited; added tags and fusions are not shown. Lines headed by an entry give the natural chain unless they say otherwise; changes in a name come on top.
UniProt Q61990, whole entry: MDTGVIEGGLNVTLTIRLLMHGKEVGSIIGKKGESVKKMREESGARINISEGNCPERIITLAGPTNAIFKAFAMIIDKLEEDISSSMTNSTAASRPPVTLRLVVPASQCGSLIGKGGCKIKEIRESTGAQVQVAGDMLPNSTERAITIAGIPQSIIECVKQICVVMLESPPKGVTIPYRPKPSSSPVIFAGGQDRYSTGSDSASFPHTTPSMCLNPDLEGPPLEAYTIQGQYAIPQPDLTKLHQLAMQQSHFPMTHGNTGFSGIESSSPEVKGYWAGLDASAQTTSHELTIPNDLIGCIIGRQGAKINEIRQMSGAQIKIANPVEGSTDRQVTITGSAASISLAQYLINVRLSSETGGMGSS
UniProt P16858: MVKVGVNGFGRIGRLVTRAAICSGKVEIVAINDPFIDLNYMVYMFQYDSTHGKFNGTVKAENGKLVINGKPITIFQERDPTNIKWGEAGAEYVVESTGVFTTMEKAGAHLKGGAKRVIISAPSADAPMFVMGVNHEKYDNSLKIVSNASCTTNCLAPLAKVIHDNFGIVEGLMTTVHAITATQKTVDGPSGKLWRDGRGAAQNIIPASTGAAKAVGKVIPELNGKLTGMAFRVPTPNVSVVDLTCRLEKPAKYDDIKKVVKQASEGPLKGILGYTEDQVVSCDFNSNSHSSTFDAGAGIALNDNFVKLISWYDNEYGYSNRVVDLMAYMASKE

Columns and labels:
[1] = target: PCBP2 endogenous (Mus musculus (hepatocytes)) (UniProt Q61990); assay: pull-down + immunoblot; conditions: pull-down: streptavidin beads blocked with 1 mg/mL yeast tRNA, 90 min 4 C, lysis buffer washes; 4 ug recombinant PCBP2; protein in an extract; label: 5' biotin
[2] = target: T1, SYNCRIP (hnRNPQ) endogenous (Mus musculus (hepatocytes)) (UniProt Q7TMK9); assay: pull-down + immunoblot; conditions: pull-down: streptavidin beads blocked with 1 mg/mL yeast tRNA, 90 min 4 C, lysis buffer washes; 4 ug recombinant PCBP2; protein in an extract; label: 5' biotin
T1 sequence (looked up, limits assumed): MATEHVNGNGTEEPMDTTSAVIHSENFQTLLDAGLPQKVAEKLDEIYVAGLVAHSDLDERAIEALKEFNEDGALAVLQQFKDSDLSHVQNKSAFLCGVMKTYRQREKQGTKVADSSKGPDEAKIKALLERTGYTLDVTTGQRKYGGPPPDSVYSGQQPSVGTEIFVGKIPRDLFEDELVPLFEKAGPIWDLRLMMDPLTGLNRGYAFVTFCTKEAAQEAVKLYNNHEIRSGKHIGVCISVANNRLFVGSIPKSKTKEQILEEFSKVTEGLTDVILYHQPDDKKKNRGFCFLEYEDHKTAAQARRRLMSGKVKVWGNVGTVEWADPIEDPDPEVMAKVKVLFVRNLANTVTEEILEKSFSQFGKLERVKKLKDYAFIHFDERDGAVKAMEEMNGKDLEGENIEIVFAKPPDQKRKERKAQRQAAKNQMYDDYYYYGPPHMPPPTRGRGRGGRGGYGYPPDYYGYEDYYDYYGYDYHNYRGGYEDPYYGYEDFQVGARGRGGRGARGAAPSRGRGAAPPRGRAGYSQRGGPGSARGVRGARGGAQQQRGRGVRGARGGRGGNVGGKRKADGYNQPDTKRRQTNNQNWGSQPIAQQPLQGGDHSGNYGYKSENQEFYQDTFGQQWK

[3] = target: PCBP2 recombinant (Origene TP522190) (Mus musculus) (UniProt Q61990); assay: pull-down; conditions: pull-down: streptavidin beads blocked with 1 mg/mL yeast tRNA, 90 min 4 C, lysis buffer washes; 4 ug recombinant PCBP2; commercial protein; label: 5' biotin
[4] = target: PCBP2 endogenous (Mus musculus (hepatocytes)) (UniProt Q61990); assay: EMSA supershift; conditions: EMSA: REMSA binding buffer (LightShift kit), 4 ug extract, 0.5 pmol biotin-RNA, 30 min room temperature, native 6% PAGE 0.5x TBE, protein in an extract, label: 5' biotin
[5] = target: T1, SYNCRIP (hnRNPQ) endogenous (Mus musculus (hepatocytes)); assay: EMSA supershift; conditions: EMSA: REMSA binding buffer (LightShift kit), 4 ug extract, 0.5 pmol biotin-RNA, 30 min room temperature, native 6% PAGE 0.5x TBE, protein in an extract, label: 5' biotin
[6] = target: GAPDH endogenous (Mus musculus (hepatocytes)) (UniProt P16858); assay: pull-down + immunoblot; conditions: negative control; pull-down: streptavidin beads blocked with 1 mg/mL yeast tRNA, 90 min 4 C, lysis buffer washes; 4 ug recombinant PCBP2; protein in an extract; label: 5' biotin

| Sequence | binding result [1] | binding result [2] | further results |
| --- | --- | --- | --- |
| AGGGACUUUCAUUGGCAGCUGUG [miR-365-2-5p +CELL (printed as +hEXO in Table 1)] | binds | binds |  |
| CCUGUUCUCCAUUACUUGGCUC [miR-26b-3p WT] | binds | binds |  |
| CCUGUUCUCCAUUACUUGGCGA [miR-26b-3p no-hEXO] | binds more weakly |  |  |
| CUCCUACCUGUUAGCAUGAUC [miR-155-3p no-CELL] | binds more weakly | binds | binding result [3]: binds more weakly |
| UGCUAUGCCAACAUAUUGGGCUG [miR-31-3p+hEXO] | binds | binds |  |
| UGCUAUGCCAACAUAUUUGGCUG [miR-31-3p+hEXO no-CELL] | binds more weakly |  |  |
| UGCUAUGCCAACAUAUUGCCAUC [miR-31-3p WT] | no binding |  |  |
| CUCCUACCUGUUAGCAUUAGU [miR-155-3p no-hEXO] | binds more weakly | binds more weakly |  |
| CUCCUACCUGUUAGCAUUAAC [miR-155-3p WT (Table 1: miR-155b-3p WT)] | binds | binds | binding result ([4]; anti-PCBP2): binds; binding result ([4]; shSYNCRIP extract): binds more weakly; binding result ([5]; anti-SYNCRIP): binds; binding result ([5]; shPCBP2 extract): binds; binding result [6]: no binding |
| AGGGACUUUCAGGGGCAGCUGUG [miR-365-2-5p WT] | no binding | binds |  |
